In patent US20070003551A1:
Results are given in words; binding and its absence hold for the method and conditions named. A result given as binding can be weak or reduced; the word gives no strength.

Tests used:
[1] = target: purified human platelet glycoprotein IIb/IIIa (human); assay: Western blot of non-reduced purified human platelet GPIIb/IIIa
[2] = target: purified human platelet glycoprotein IIb/IIIa (human); assay: phage ELISA on coated purified GPIIb/IIIa (2 ug/ml)

B1: Fab-expressing phage clone S4 (Fab, V domains shown)
VH: VQLLEESGGGLVQPGGSLRLSCTASRFTLSTYEMNWVRQAPGKGLEWVSYISTSGGIMYYADSVRGRFTISRDNAKNSLYLQMNSLRAEDTALYYCATVTLDGNNPFENWGQGTLVT
VL: AAELTQSPLSLSVTLGQPASIACKSSHSLARSDGVSLMNWVHLRPGRSPRRLIYDVSKRENGVPDRFSGSGSGTDFTLEINRVEAEDVGLYYCLQYAHWPHTFGQGTKLEIKR
binding [1]: binds
binding [2]: binds
